# Test results published in PubChem BioAssay AID493014 (National Center for Advancing Translational Sciences (NCATS), 2011).
# Among all 340,000 compounds or so, about 170 (0.05%) were called active. The inconclusive results got no clear call from the source; some entries with a clear call stand among them for comparison. The call rests on the fitted dose curve; in most records, active means well fitted inhibition curve with a large enough effect in the signal ratio, with a control signal flat (not every such curve was filed as active); inconclusive means small, poorly fitted or top-dose-only effect, or effect the other way, or a change in a side signal; inactive means flat fitted curve, though single readings scatter; the % refers to the signal ratio. A potency beside an inconclusive call is a rough fit, not a confirmed value.
# Test: qHTS Assay to Find Inhibitors of Chronic Active B-Cell Receptor Signaling;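 on activity change, negative = inhibition: plate controls were basal doxycycline-induced cells for no effect and cells given 10 µM MG132 for full effect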
# Details: ABC-DLBCL IkBa-CBG/CBR reporter, luminescence ratio (green luciferase fused to IkBa over red control in TMD8 lymphoma cells), 4 h; activity change, negative = inhibition: at 46.1 µM (top of the series)
# How it was run: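 Cell line TMD8 (human ABC DLBCL), stably expressing tet-inducible CBG68-IkBa fusion and CBR; IMDM/0.5% FBS; cpd up to 46 uM; dox induction, 4 h, 37C/5% CO2; dual luminescence; green/red ratio; MG132 control.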
# Potency means the concentration at half of the fitted maximal effect.
SMILES,"activity change, negative = inhibition",Potency
CNS(=O)(=O)c1ccc2nc(NC(=O)/C=C/c3ccco3)sc2c1,inconclusive: 10.4%,–
COC(=O)c1cc(C)ccc1OCc1ccc([N+](=O)[O-])cc1,inconclusive: 12.7%,–
Cc1nc(CC(=O)Nc2nc(C(C)(C)C)cs2)cs1,inconclusive: 3.39%,–
C#CCOCCOCCOCCNc1nc(N2CCN(C(=O)[C@H](C(C)C)n3cc(CCO)nn3)CC2)nc(N2CCN(C(=O)[C@H]([C@@H](C)CC)n3cc(CCCN=C(N)N)nn3)CC2)n1,inconclusive: -4.68%,–
CCc1nnc(NC(=O)CSc2nc3c(cc2C#N)CCCC3)s1,inactive,–
Cc1ccc(S(=O)(=O)NN2C(=O)/C(=C/c3cccc(F)c3)SC2=S)cc1,inconclusive: 0.271%,–
Cc1ccc(/C=C/C(=O)Nc2sc3c(c2C#N)CCCC3)o1,inactive,–
O=C(Cc1ccc(F)cc1)Nc1ccc(S(=O)(=O)N2CCCCC2)cc1,inconclusive: 8.51%,–
CC(=O)Nc1c(C)nn(-c2ccc([N+](=O)[O-])cc2)c1C,inconclusive: 5.57%,–
Cc1[nH][nH]c(=O)c1C(c1c(C)[nH][nH]c1=O)c1cn(Cc2cccc3ccccc23)c2ccccc12,–,"inconclusive: 25.1 µM [falling, single point]"
CC(C)(C)c1ccc(-c2cc(C(=O)NNC(=O)Nc3ccccc3)c3ccccc3n2)cc1,inactive,–
CC(=O)c1ccc(NC(=O)C(C)OC(=O)c2ccc(NS(=O)(=O)c3ccc(F)c(F)c3)cc2)cc1 (stereo not given),inconclusive: 0.192%,–
O=S(=O)(Nc1ccc(F)cc1Cl)c1ccc(-c2cnc(C3CC3)o2)cc1,–,"inconclusive: 11.2 µM [falling, partial curve]"
CCOC(=O)N1CCC(NCCNC(=O)c2ccc(F)c(F)c2)CC1,inactive,–
COc1ccc(-n2nc([N+](=O)[O-])c(=NCCCN3CCCC3=O)n2O)cc1,inconclusive: 4.79%,–
COc1ccc(-n2cc(-c3ccc(OC)c(OC)c3)[nH]c2=S)cc1,inactive,–
COc1ccc(-n2cccc2C=O)cc1,inconclusive: 14.6%,–
CCOc1ccc(CCNS(=O)(=O)c2cccc3nsnc23)cc1OCC,inconclusive: -11.2%,–
N#CCSc1ccc(-c2nc3ccccc3[nH]2)cn1,inconclusive: -10.6%,–
CCOC(=O)c1cc2ccc3ccccc3c2s1,–,"inconclusive: 6.51 µM [rising, partial curve]"
C=C(C)Cn1cnc2cc(C)c(C)cc21,inactive,–
O=C(NC(=S)Nc1cccc([N+](=O)[O-])c1)C1CCCC1,inconclusive: -10.4%,–
CCOC(=O)NC(=S)Nc1ccc(C(C)(C)C)cc1,inconclusive: 0.505%,–
COc1ccc2c(c1)[nH]c1c(N3CCSCC3)ncnc12,–,"inconclusive: 35.5 µM [rising, partial curve, poor fit]"
C=CCn1c(C)cc(C(=O)COC(=O)[C@@H](NC(=O)c2ccccc2Cl)C(C)C)c1C,inactive,–
O=C(/C=C/c1cccc([N+](=O)[O-])c1)NCCN1CCOCC1,–,"inconclusive: 1.41 µM [falling, partial curve, poor fit]"
c1csc(-c2cnc3n2CCCC3)c1,inconclusive: -0.335%,–

SMILES,"activity change, negative = inhibition",Potency
C/C(=N\NC(=O)c1ccccc1C)c1ccc(NC(=O)c2cccs2)cc1,–,"inconclusive: 35.5 µM [rising, single point]"
Nc1nc(NC(=O)c2ccc(Cl)cc2)nn1-c1ccccc1,–,"inconclusive: 18.4 µM [falling, partial curve, poor fit]"
COc1ccc(NC(=O)COc2coc(CN3CCc4ccccc43)cc2=O)cc1,–,"inconclusive: 0.13 µM [falling, full curve, poor fit]"
O=C(/C=C/c1ccco1)Nc1ccc(N2CCCC2)cc1,–,"inconclusive: 0.092 µM [falling, full curve, poor fit]"
COC(=O)N1C(=O)[C@](CC(C)C)(c2ccccc2)N1C(=O)OC,inconclusive: -22.9%,–
Cc1nnc(SCC(=O)c2ccc(Br)cc2)s1,inconclusive: -6.15%,–
O=C(Nc1nc2ccc(S(=O)(=O)N3CCCCC3)cc2s1)c1ccncc1,inconclusive: 1.72%,–
CCCn1nnc(NC(=O)C(C)C)n1,inactive,–
Cc1ccc(/C=C2/SC(=S)N(CCCC(=O)Nc3ccc(O)cc3)C2=O)cc1,–,"inconclusive: 6.31 µM [rising, single point]"
O=C1/C(=C/c2cccs2)SC(=S)N1c1cccc(O)c1,inconclusive: 6.39%,–
CCOC(=O)COc1ccc(Br)cc1/C=C\c1[nH]c(=O)[nH]c(=O)c1[N+](=O)[O-],inconclusive: 7.29%,–
O=S(=O)(Nc1ncccn1)c1ccc(Cl)cc1,inconclusive: 1.82%,–
CC1CCCC(NC(=O)CCn2c(=S)oc3ccccc32)C1C (stereo not given),inconclusive: -0.159%,–
COc1ccccc1OCC(=O)Nc1nc(C)c(C)s1,–,"inconclusive: 25.1 µM [falling, single point]"
CCOC(=O)C1CCN(S(=O)(=O)c2ccc(-c3nc4ccccc4s3)s2)CC1,inconclusive: 0.143%,–
O=C1CCc2cc(NS(=O)(=O)c3ccc(Cl)cc3)cc3c2N1CC3,–,"inconclusive: 4.61 µM [falling, full curve]"
CCOC(=O)C1CCCN(Cc2nc(N)nc(Nc3ccc(OC)cc3)n2)C1 (stereo not given),inactive,–
O=C(CSc1cn(CCNC(=O)c2ccc3ccccc3c2)c2ccccc12)NCc1ccco1,inconclusive: -0.0076%,–
O=C(O)c1ccc(/C=N/Nc2ccc(C(F)(F)F)cn2)cc1,–,"inconclusive: 4.47 µM [falling, partial curve]"
CC(Nc1ccc2c(c1)OCCO2)C(=O)N1CCc2ccccc21 (stereo not given),inconclusive: -20.3%,–
COc1ccc(NS(=O)(=O)c2ccc(N3CCOCC3)c(NC(=O)c3ccc(OC)cc3)c2)cc1,inactive,–
O=C(Nc1ccc(Cl)cc1)c1cc(S(=O)(=O)N2CCc3ccccc32)ccc1F,–,"inconclusive: 14.1 µM [falling, single point]"
O=C(c1cccs1)N1N=C(c2ccccc2)CC1c1ccccc1 (stereo not given),inconclusive: 10.5%,–
CCN(CC)c1ccc(/C=N/N=C(N)N)c(O)c1,–,"inconclusive: 15.8 µM [falling, single point]"
CCOc1cc(CNC2CCCC2)cc(Cl)c1OCc1ccccc1,inconclusive: -6.69%,–
CN(C)c1ccc(/C=N/NC(=O)c2ccccc2Cl)cc1,–,"inconclusive: 1.84 µM [rising, full curve, poor fit]"
CCc1[nH]nc2c1C(c1ccsc1)C(C#N)=C(N)O2 (stereo not given),inconclusive: -143%,–

SMILES,"activity change, negative = inhibition",Potency
O=C(Nc1cccc2c1N(C(=O)c1ccco1)CCC2)c1ccco1,inconclusive: -1.16%,–
Cc1ccc(CN2C(=O)/C(=C3\SC(N4CCOCC4)=NC3=O)c3cc(Br)ccc32)cc1,inconclusive: 0.421%,–
O=C(N/N=C/c1ccc(O)cc1)c1cc(-c2ccc3c(c2)OCO3)n[nH]1,inconclusive: 2.47%,–
Clc1ccc(-c2onc3c2CCCC3)cc1,inconclusive: 3.75%,–
CC[C@@H](C)[C@H](CNC)NC[C@@H](Cc1cccc2ccccc12)NCCc1cccc(C(F)(F)F)c1,–,"inconclusive: 35.5 µM [falling, single point]"
O=C(Nc1ccc2c(c1)CCC2)c1ccc(Cl)nc1,–,"inconclusive: 1.78 µM [rising, partial curve, poor fit]"
CCn1c(SCc2cccc(C(F)(F)F)c2)nnc1-c1ccco1,inactive,–
O=C(NCCN1C(=O)S/C(=C\c2ccc(OC(F)F)cc2)C1=O)c1cnccn1,–,"inconclusive: 16.4 µM [falling, partial curve, poor fit]"
O=C(/C=C/c1ccccc1)NCc1ccco1,inconclusive: -21.4%,–
CC(C)NC(=O)CSc1nnc(-c2ccc3ncccc3c2)n1C,inconclusive: 1.6%,–
CCn1c(C(=O)N2CCc3ccccc3C2)cc2sccc21,–,"inconclusive: 16.4 µM [falling, partial curve]"
Cc1ccccc1OCCCCn1c(CO)nc2ccccc21,inactive,–
O=C(Oc1ccc(-c2ccccc2)cc1)C1C2CCCCC21 (stereo not given),inconclusive: 2.31%,–
COC(=O)c1ccccc1C(=O)c1cccc2ccccc12,inconclusive: 4.92%,–
CC(=O)Nc1ccc(C2=NN(c3ccccc3)C(c3ccccc3)C2)cc1 (stereo not given),inconclusive: -0.818%,–
Cc1cnc(C(=O)N2CCCC(N3CCN(c4ccccc4C)CC3)C2)cn1 (stereo not given),inactive,–
CSCCC(NC(=O)c1ccc([N+](=O)[O-])cc1Cl)C(=O)OCC(=O)N(C)C (stereo not given),inconclusive: 3.61%,–
COc1ccc(NC(=O)CSCC(=O)OCc2cccc(OC)c2OC)cc1,inconclusive: 5.69%,–
O=C(O)c1cccc(COc2ccc3c(c2)CCC3)c1,–,"inconclusive: 3.98 µM [rising, full curve, poor fit]"
Cc1ccc(C)c(OCCC(=O)OCC(=O)Nc2ccc(C)c(S(=O)(=O)N3CCCCC3)c2)c1,inconclusive: -21.3%,–
CCOC(=O)C1=C(CSc2nc3c(cc2C#N)CN(C)CC3)OC(N)=C(C#N)C1c1ccc(F)cc1 (stereo not given),inconclusive: 19.4%,–
CC1=NN(c2ccccc2C(=O)O)C(=O)C1N=Nc1ccccc1 (stereo not given),–,"inconclusive: 12.6 µM [falling, partial curve]"
CN(CC(=O)Nc1ccc(Cl)c(C(F)(F)F)c1)C(=O)c1cccc(N2C(=O)CCC2=O)c1,inconclusive: -0.753%,–
COc1ccc(C2(O)CC3CCC(C2)N3c2nc(C)cc(C)c2C#N)cc1 (stereo not given),inconclusive: -5.85%,–
Cc1cccc(OCCCn2ccnc2)c1,inactive,–
Cc1ccccc1-c1nn2c(-c3ccccc3)nnc2s1,inconclusive: -0.99%,–

# Five neighbouring compounds already listed, quoted:
SMILES,"activity change, negative = inhibition",Potency
CCN(CC)c1ccc(/C=N/N=C(N)N)c(O)c1,–,"inconclusive: 15.8 µM [falling, single point]"
CCOc1cc(CNC2CCCC2)cc(Cl)c1OCc1ccccc1,inconclusive: -6.69%,–
CN(C)c1ccc(/C=N/NC(=O)c2ccccc2Cl)cc1,–,"inconclusive: 1.84 µM [rising, full curve, poor fit]"
CCc1[nH]nc2c1C(c1ccsc1)C(C#N)=C(N)O2 (stereo not given),inconclusive: -143%,–
O=C(Nc1cccc2c1N(C(=O)c1ccco1)CCC2)c1ccco1,inconclusive: -1.16%,–
